Reference: US20210274786A1, “IMIDE COMPOUND AND USE THEREOF” (SUMITOMO CHEMICAL COMPANY, LIMITED, priority 2016, published 2021)
Some results were stated once for a whole list of compounds, not compound by compound.

Tests used:
Puccinia recondita = experiment: Test Example 1: wheat foliar spray, preventive test against Puccinia recondita, lesion area; assay type: in vivo, wheat (cultivar. Shirogane); conditions: 500 ppm, formulated per Formulation Example 6, inoculated five days after spraying, examined after one day dark and humid plus eight days under lighting
Pyrenophora teres = experiment: Test Example 2: barley foliar spray, preventive test against Pyrenophora teres, lesion area; assay type: in vivo, barley (cultivar. Nishinohoshi); conditions: 500 ppm, formulated per Formulation Example 6, inoculated two days after application, examined after three days humid plus seven days in greenhouse

SMILES | lesion area as compared to the lesion area in the untreated group of wheat (Puccinia recondita) [%] | lesion area as compared to the lesion area in the untreated group of barley (Pyrenophora teres) [%]
C[C@@H]1CC(C)(C)c2cccc(N(C(=O)c3cn(C)nc3C(F)F)C(=O)c3cn(C)nc3C(F)F)c21 [Present Compound (1)] | ≤ 10 | –
CC1CC(C)(C)c2c(F)ccc(N(C(=O)c3cn(C)nc3C(F)F)C(=O)c3cn(C)nc3C(F)F)c21 (centres unmarked) [Present Compound (2)] | ≤ 10 | ≤ 10
CC1CC(C)(C)c2cccc(N(C(=O)c3cn(C)nc3C(F)F)C(=O)c3cn(C)nc3C(F)F)c21 (centres unmarked) [Present Compound (3)] | ≤ 10 | ≤ 10
